Here are results for 2 compounds from paper PMC10901892 (Scientific Reports, 2024).

The nature of this series: GSH adduct formation by ESI-MS. The following applies: 10 μM drug, 0.2 mM GSH, 100 mM KPO4 buffer, 1 h at 37 °C.

Regarding `N#CC(C#N)=NNc1ccc(OC(F)(F)F)cc1` [FCCP, carbonyl cyanide p-trifluoromethoxy-phenylhydrazone, reference compound], the “adduct formation with GSH” value is “form adducts with GSH”.
Take `CCCCCCCCOc1ccc(NN=C(C#N)C#N)cc1` [NMY1009, (4-octyloxy-phenyl)carbonhydrazonoyl dicyanide]: the “adduct formation with GSH” value is recorded as “form adducts with GSH”.
